Laboratory results reported in article PMC7140707.
These are yes or no findings as the source states them, for the method shown. In cells and extracts the contact can be indirect. Here binding means that the protein was enriched with, or labelled near, the bait; the list need not be complete. Tags and fused reporters may be left off the sequences shown.

T1: His6-Gis1 (yeast (S. cerevisiae)) (UniProt Q03833)
T1 sequence: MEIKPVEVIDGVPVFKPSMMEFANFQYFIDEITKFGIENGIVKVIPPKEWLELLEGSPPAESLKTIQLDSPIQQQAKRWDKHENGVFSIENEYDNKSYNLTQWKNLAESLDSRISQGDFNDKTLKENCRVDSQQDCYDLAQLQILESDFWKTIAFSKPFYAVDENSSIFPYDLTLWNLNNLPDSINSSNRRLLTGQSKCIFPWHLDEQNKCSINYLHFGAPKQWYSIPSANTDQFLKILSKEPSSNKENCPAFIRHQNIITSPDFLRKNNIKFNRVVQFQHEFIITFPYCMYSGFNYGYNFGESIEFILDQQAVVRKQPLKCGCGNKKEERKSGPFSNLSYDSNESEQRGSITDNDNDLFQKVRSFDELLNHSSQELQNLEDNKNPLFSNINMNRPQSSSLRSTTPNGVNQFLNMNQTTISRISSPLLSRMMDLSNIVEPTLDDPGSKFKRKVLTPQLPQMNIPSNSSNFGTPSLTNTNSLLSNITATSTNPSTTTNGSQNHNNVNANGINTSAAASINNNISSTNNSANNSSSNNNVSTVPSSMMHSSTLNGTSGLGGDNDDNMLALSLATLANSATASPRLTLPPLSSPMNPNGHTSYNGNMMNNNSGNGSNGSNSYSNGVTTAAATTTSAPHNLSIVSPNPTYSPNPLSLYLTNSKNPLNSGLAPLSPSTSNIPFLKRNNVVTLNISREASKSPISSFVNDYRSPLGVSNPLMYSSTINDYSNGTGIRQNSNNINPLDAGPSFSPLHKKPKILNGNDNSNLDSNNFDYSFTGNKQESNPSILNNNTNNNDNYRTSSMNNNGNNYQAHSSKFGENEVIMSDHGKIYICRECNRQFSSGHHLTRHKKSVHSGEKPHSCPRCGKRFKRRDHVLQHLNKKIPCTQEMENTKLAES


The binders below were run against T1, His6-Gis1 (yeast (S. cerevisiae)) (assay: affinity purification with mass spectrometry; His6-Gis1 pre-bound to a Ni Sepharose 6 Fast Flow column; crude yeast extract (Δgis1 cells grown in air or under hypoxia, Δgis1Δhem1 cells at intermediate or high ALA) loaded, 4 °C, 2 h; eluted complexes separated by SDS-PAGE, bands excised, MS; only the target purified).

Binder | binding
HEM15 (protein, UniProt P16622 32-393) NAQKRSPTGIVLMNMGGPSKVEETYDFLYQLFADNDLIPISAKYQKTIAKYIAKFRTPKIEKQYREIGGGSPIRKWSEYQATEVCKILDKTCPETAPHKPYVAFRYAKPLTAETYKQMLKDGVKKAVAFSQYPHFSYSTTGSSINELWRQIKALDSERSISWSVIDRWPTNEGLIKAFSENITKKLQEFPQPVRDKVVLLFSAHSLPMDVVNTGDAYPAEVAATVYNIMQKLKFKNPYRLVWQSQVGPKPWLGAQTAEIAEFLGPKVDGLMFIPIAFTSDHIETLHEIDLGVIGESEYKDKFKRCESLNGNQTFIEGMADLVKSHLQSNQLYSNQLPLDFALGKSNDPVKDLSLVFGNHEST | binds
HFD1 (protein, UniProt Q04458 1-532) MSNDGSKILNYTPVSKIDEIVEISRNFFFEKQLKLSHENNPRKKDLEFRQLQLKKLYYAVKDHEEELIDAMYKDFHRNKIESVLNETTKLMNDILHLIEILPKLIKPRRVSDSSPPFMFGKTIVEKISRGSVLIIAPFNFPLLLAFAPLAAALAAGNTIVLKPSELTPHTAVVMENLLTTAGFPDGLIQVVQGAIDETTRLLDCGKFDLIFYTGSPRVGSIVAEKAAKSLTPCVLELGGKSPTFITENFKASNIKIALKRIFFGAFGNSGQICVSPDYLLVHKSIYPKVIKECESVLNEFYPSFDEQTDFTRMIHEPAYKKAVASINSTNGSKIVPSKISINSDTEDLCLVPPTIVYNIGWDDPLMKQENFAPVLPIIEYEDLDETINKIIEEHDTPLVQYIFSDSQTEINRILTRLRSGDCVVGDTVIHVGITDAPFGGIGTSGYGNYGGYYGFNTFSHERTIFKQPYWNDFTLFMRYPPNSAQKEKLVRFAMERKPWFDRNGNNKWGLRQYFSLSAAVILISTIYAHCSS | binds
INA22 (protein, UniProt P40576 27-216) VASANAGIKRKSRFDKTMIKPLLLVMIFGSILNAVIAEKRNIIDMERKYKLKLDKLKELIRRVHDNNGKVDFDADDELKLVNLRLGIVGKNATGMKEDETDIVVPKEESLEEIWQSIIDEAKKEVIEKTPDAGVKNKEGIVTDLNVLKDLEKSKKEDEKVYLSGDVHMMMNQPGDLNEIAKEHDKIPKFL | binds
IRC22 (protein, UniProt P40006 25-225) NNSDNVEHEQEVAEAVAPPSINIEVKYDVVGKESENHDSFLEFYAEDTATLAYNVTNWEDTNITIFGVNGTIVTYPHGYPVADITGASIGPYEMEVNGTSKFGQDVTLNLPEGQYFLIPFLLASRFDEIVRIAAPPTLFEIVSPPISFFNPQFLSVQVIFLAIIGGVSYYYMKSKTNQRPSKKSATVKKVDESWLPETYKK | binds
CKS1 (protein, UniProt P20486 1-150) MYHHYHAFQGRKLTDQERARVLEFQDSIHYSPRYSDDNYEYRHVMLPKAMLKVIPSDYFNSEVGTLRILTEDEWRGLGITQSLGWEHYECHAPEPHILLFKRPLNYEAELRAATAAAQQQQQQQQQQQQQQQQHQTQSISNDMQVPPQIS | binds
IRC5 (protein, UniProt P43610 1-853) MSRCSNAALMTVVEDAVGARVAARTRNMSNGVNYREKEVNDLTADISDSDSDLDSEDNKHGKGDNDTAPIWLQDDVHSDEDIQLDSEDDSDTEAVQAQVVDKLAKDTKSEQKSLDDELSEMDTKTVSLKLKKLNEFVRQSQVYSSIIADTLLHRSNEVANANTKDNSNSDDEEHSSKKRKTKKKSITDFFKKQKKNEDTTTQNGAPDDAAIKQPRLLKNCILKPYQLEGLNWLITLYENGLNGILADEMGLGKTVQSIALLAFIYEMDTKGPFLVTAPLSTLDNWMNEFAKFAPDLPVLKYYGTNGYKERSAKLKNFFKQHGGTGIVITSYEIILRDTDLIMSQNWKFLIVDEGHRLKNINCRLIKELKKINTSNRLLLTGTPLQNNLAELWSLLNFIMPDIFADFEIFNKWFDFDSLNLGSGSNSEALNKLINDELQKNLISNLHTILKPFLLRRLKKVVLANILPPKREYIINCPMTSAQEKFYKAGLNGKLKKTMFKELIKDFFTLNDEYIGHVSNRSIRDFINYKLSGNETSNTDNKINPTLLQMDKLYKKNLQMEISNKKLQNMMMQLRQIIDSTFLFYFPYLHPEDLTLETLLKTSGKLQILQKLIPPLISEGHKVLIYSQFVNMLDLIEDWCDLNSFATFRIDGSVNNETRKDQLEKFNSSKDKHNIFLLSTRAAGLGINLVGADTVVLFDSDWNPQVDLQAMDRCHRIGQESPVIVYRLCCDNTIEHVILTRAANKRNLERMVIQMGKFNNLKKLALNEGSFLKANKAGVNVTNKDLVQELSMLLMSDESNIGFENGGQKENKATEGQLTDKEVEELTNRSLEAYKANRVVDLPHVKLFETTSGL | binds
LYS20 (protein, UniProt P48570 1-428) MTAAKPNPYAAKPGDYLSNVNNFQLIDSTLREGEQFANAFFDTEKKIEIARALDDFGVDYIELTSPVASEQSRKDCEAICKLGLKAKILTHIRCHMDDAKVAVETGVDGVDVVIGTSKFLRQYSHGKDMNYIAKSAVEVIEFVKSKGIEIRFSSEDSFRSDLVDLLNIYKTVDKIGVNRVGIADTVGCANPRQVYELIRTLKSVVSCDIECHFHNDTGCAIANAYTALEGGARLIDVSVLGIGERNGITPLGGLMARMIVAAPDYVKSKYKLHKIRDIENLVADAVEVNIPFNNPITGFCAFTHKAGIHAKAILANPSTYEILDPHDFGMKRYIHFANRLTGWNAIKARVDQLNLNLTDDQIKEVTAKIKKLGDVRSLNIDDVDSIIKNFHAEVSTPQVLSAKKNKKNDSDVPELATIPAAKRTKPSA | binds
MLF3 (protein, UniProt P32047 1-452) MCVYKSNSNNSNPSFIFERTVQEASSNDLFLQPPVSASNTSHSSRSNSFYNLQTISPIPISGSEVRTPSLRKNSNNVSSPLDNVIPTSRSASNSTTSSLAHQEYILNPICNMQNHHHRRRTLENSVAPALDASCSIVNDENTDLSDVDMVYSRRPSSAVSLNMALLARTNSATLPSSESSPASPDLKLSRSHSHSAATRPTLNNINNTGMTTTTSNGEPNSRILRFYSYVDMLNDEKLAQANNTPTSRPPMKSQAYSCPFILKRSPPQAYSSSSATTTFSNPFIKTTELPATSPYVSPQQSARQYSNNANNNAKSPKNRSSSILFQRQSILSNVDPVANMHKNPKFQIESSDSEEEDLTMDMLDPSFPLSSSLRSSANLASNPELATQTPLSTSSSYTAIGKPMPLSTDPSYVSSSNTLSSEHELRVEKVSEVLKKKVSNGGFSTEFNSCDT | binds
MPE1 (protein, UniProt P35728 1-441) MSSTIFYRFKSQRNTSRILFDGTGLTVFDLKREIIQENKLGDGTDFQLKIYNPDTEEEYDDDAFVIPRSTSVIVKRSPAIKSFSVHSRLKGNVGAAALGNATRYVTGRPRVLQKRQHTATTTANVSGTTEEERIASMFATQENQWEQTQEEMSAATPVFFKSQTNKNSAQENEGPPPPGYMCYRCGGRDHWIKNCPTNSDPNFEGKRIRRTTGIPKKFLKSIEIDPETMTPEEMAQRKIMITDEGKFVVQVEDKQSWEDYQRKRENRQIDGDETIWRKGHFKDLPDDLKCPLTGGLLRQPVKTSKCCNIDFSKEALENALVESDFVCPNCETRDILLDSLVPDQDKEKEVETFLKKQEELHGSSKDGNQPETKKMKLMDPTGTAGLNNNTSLPTSVNNGGTPVPPVPLPFGIPPFPMFPMPFMPPTATITNPHQADASPKK | binds
MSC1 (protein, UniProt Q03104 1-513) MKQFKLVNAVSASFVLIGLVLANSDSVFDKWTQEDLADYLRDNKKSLEKYATDSIEDLKTEASQVWDKHAQPKPWWQVWSSDSSSVSNSNPGWFGYTGSSDHPVSDWLFDTWSTDSLRNFLKKNGVDVDDAKASKDSLVKTAKENFNKISKSLKSSGYYPSSSYFDSWSTKDLQNWLNDNGIDYDKAVQSKDELVQKVKENIYRTSEKAEQQRLGLLESLDLAHQQILDTSGQIKDTVFDKWSSDQLTNWLESHKVNIDKNMAKKHDYLVRMAKENSANLKDDIYWYLDYMKRESSPFLTKTPEYVGSVWDSSKNFLTNLYSKFRGKTDNVINDTFLVGLDSWPKDKLKMFLDARGIKYSMLSTEHQLRELVKKSRNEKLKILPKDYQKYFDNSNWSLDDIKGWFADKKDDFQDSQTYSTIMQDFDKVSKNTNDAKDQIAKTWSNTFQSWSQEDLLQYLKSFGVPVKQTSTKDDLINLAKQNTQWLFGTVKEPAYKRYLHNVKNWSKSILGFN | binds
